PubChem BioAssay AID686937 – Drosophila RNAi Screening Center – 2013
Aim: 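Genes whose loss weakens secretory pathway function in fly cells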 (primary screen). Cells: Drosophila S2 cells expressing secreted horseradish peroxidase. Knock-down reagent: long dsRNA against Drosophila genes. Time to read-out: about 5.5 days (5 days dsRNA, then 12 h reporter induction). Conditions: reporter expression induced after 5 days of dsRNA, read 12 h later; inducer not stated. Read-out: 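Chemiluminescent measurement of peroxidase in the medium 12 h after reporter induction, following 5 days of dsRNA, given as a z-score per plate; higher means more secretion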. Direction: z-score: higher = more reporter secreted into medium.
The deposit covers about 23,000 reagents; below is an unselected part of those with a known target gene and a result. 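Reduced-secretion tags in replicate 1 do not always agree with the z-scores; no criterion for assigning the tags was given.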 A plus sign joins genes that one reagent is predicted to hit. Not all columns of the deposit are shown. Not stated in the record: the amount of reagent.

gcm2 [DRSC03538] gave z-score, replicate 1 = 0.34. After knock-down of CG5339 [DRSC04496], the screen gave z-score, replicate 1 = 0.24. CG16837 [DRSC04283] gave z-score, replicate 1 = 0.3. After knock-down of Mct1 (Monocarboxylate transporter 1) [DRSC18681] the results were z-score, replicate 1 = 0.25. CG5056 [DRSC02808] gave z-score, replicate 1 = 0. CG10147 [DRSC09706] gave z-score, replicate 1 = 0.19.

For Gbeta5 (G protein beta subunit 5) [DRSC17754] the deposit lists z-score, replicate 1 = 0.36. Knock-down of CG34430 [DRSC06499] gave: z-score, replicate 1 = 0.3. Pi3K68D (Phosphatidylinositol 3-kinase 68D) [DRSC11253] scored z-score, replicate 1 = -0.05. Against TfIIFalpha (Transcription factor IIFalpha) [DRSC12608], the values are z-score, replicate 1 = -3.76; phenotype, replicate 1 = reduced secretion. After knock-down of t-cup (tetleys-cup) [DRSC01254], the record shows z-score, replicate 1 = 0.15. For Cyp28d2 (Cytochrome P450 28d2) [DRSC03299], the entry reads z-score, replicate 1 = 0.46.

asRNA:CR43470 + CG14830 [DRSC10200] scored z-score, replicate 1 = 0.05. With knock-down of CG32756 [DRSC22505], the screen gave z-score, replicate 1 = -0.15. Silencing of fbp (fructose-1,6-bisphosphatase) [DRSC02077] gave: z-score, replicate 1 = 0.2. CG4681 [DRSC04481] scored z-score, replicate 1 = 0.07. With knock-down of Csp (Cysteine string protein) [DRSC11860], the record shows z-score, replicate 1 = 0.36. After knock-down of BI-1 (Bax Inhibitor-1) [DRSC10782], the record shows z-score, replicate 1 = 0.19.

Silencing of Tsp42Er (Tetraspanin 42Er) [DRSC06183] resulted in: z-score, replicate 1 = 0.43. Depletion of Ir7g (Ionotropic receptor 7g) [DRSC18008] came out at: z-score, replicate 1 = 0.35.

An excerpt taken from the entries so far, as a working copy:
CG5339 [DRSC04496] — z-score, replicate 1 = 0.24
CG16837 [DRSC04283] — z-score, replicate 1 = 0.3
Mct1 (Monocarboxylate transporter 1) [DRSC18681] — z-score, replicate 1 = 0.25
CG5056 [DRSC02808] — z-score, replicate 1 = 0
CG10147 [DRSC09706] — z-score, replicate 1 = 0.19

Additional entries follow:
Silencing of CG33017 [DRSC06573] came out at: z-score, replicate 1 = -0.06. For CG33017 [DRSC06574], the entry reads z-score, replicate 1 = 0.31. After knock-down of Zn72D (Zinc-finger protein at 72D) [DRSC11318] the results were z-score, replicate 1 = 0.08. Silencing of CG14238 [DRSC14732] resulted in: z-score, replicate 1 = 0.41. Depletion of CG5112 [DRSC15718] gave: z-score, replicate 1 = 0.34. Knock-down of CG13258 [DRSC02244] gave: z-score, replicate 1 = -0.15.

Silencing of jagn (jagunal) [DRSC12152] resulted in: z-score, replicate 1 = 0.33. Depletion of dock (dreadlocks) [DRSC00812] came out at: z-score, replicate 1 = 0.38. eEF1alpha2 (eukaryotic translation elongation factor 1 alpha 2) [DRSC14079] showed z-score, replicate 1 = 0.06. Depletion of eEF1alpha2 (eukaryotic translation elongation factor 1 alpha 2) [DRSC16658] gave: z-score, replicate 1 = -0.93. Depletion of Tom7 (Translocase of outer membrane 7) [DRSC05135] resulted in: z-score, replicate 1 = -0.16. With knock-down of Tom7 (Translocase of outer membrane 7) [DRSC07113], the record shows z-score, replicate 1 = 0.34.

For egl (egalitarian) [DRSC04682], the entry reads z-score, replicate 1 = -0.03. Depletion of CG1663 [DRSC06613] resulted in: z-score, replicate 1 = 0.07. For CG1663 [DRSC22488] the deposit lists z-score, replicate 1 = -0.45. Cpr (Cytochrome P450 reductase) [DRSC03293] showed z-score, replicate 1 = 0.29. For pira (pirate) [DRSC19494] the deposit lists z-score, replicate 1 = 0.43. After knock-down of CG17821 [DRSC06696], the screen gave z-score, replicate 1 = 0.29.

CG2233 [DRSC18217] showed z-score, replicate 1 = 0.44. CG5532 [DRSC04509] scored z-score, replicate 1 = 0.6. Depletion of Eogt (EGF-domain O-GlcNAc transferase) [DRSC00727] resulted in: z-score, replicate 1 = 0.41. Silencing of CG43149 [DRSC07859] resulted in: z-score, replicate 1 = 0.78. Silencing of CG31226 [DRSC21724] gave: z-score, replicate 1 = -2.04; phenotype, replicate 1 = reduced secretion. After knock-down of CG5089 [DRSC06914] the results were z-score, replicate 1 = 0.38.

With knock-down of CG10589 [DRSC11629] the results were z-score, replicate 1 = 0.51. mud (mushroom body defect) [DRSC19019] gave z-score, replicate 1 = 0.39. Silencing of Bem46 [DRSC00275] gave: z-score, replicate 1 = 0.71. CG13796 + CG31904 [DRSC22161] scored z-score, replicate 1 = -0.05. Depletion of Osi2 (Osiris 2) [DRSC12174] came out at: z-score, replicate 1 = 0.11. With knock-down of ND-MLRQ (NADH dehydrogenase (ubiquinone) MLRQ subunit) [DRSC11913], the record shows z-score, replicate 1 = -0.42.

CG5890 [DRSC15909] gave z-score, replicate 1 = 0.19.
